Reference: article PMC12697862
Results are given in words; binding and its absence hold for the method and conditions named. In cells and extracts the contact can be indirect. These calls come from enrichment with a bait or labelling near it, and not all partners need be listed. Where a sequence is shown, tags or fusion partners need not be part of it.

Amino acid sequences for entries named in this document (tags omitted). Residues count along the entry.
UniProt P38647, residues 47-679: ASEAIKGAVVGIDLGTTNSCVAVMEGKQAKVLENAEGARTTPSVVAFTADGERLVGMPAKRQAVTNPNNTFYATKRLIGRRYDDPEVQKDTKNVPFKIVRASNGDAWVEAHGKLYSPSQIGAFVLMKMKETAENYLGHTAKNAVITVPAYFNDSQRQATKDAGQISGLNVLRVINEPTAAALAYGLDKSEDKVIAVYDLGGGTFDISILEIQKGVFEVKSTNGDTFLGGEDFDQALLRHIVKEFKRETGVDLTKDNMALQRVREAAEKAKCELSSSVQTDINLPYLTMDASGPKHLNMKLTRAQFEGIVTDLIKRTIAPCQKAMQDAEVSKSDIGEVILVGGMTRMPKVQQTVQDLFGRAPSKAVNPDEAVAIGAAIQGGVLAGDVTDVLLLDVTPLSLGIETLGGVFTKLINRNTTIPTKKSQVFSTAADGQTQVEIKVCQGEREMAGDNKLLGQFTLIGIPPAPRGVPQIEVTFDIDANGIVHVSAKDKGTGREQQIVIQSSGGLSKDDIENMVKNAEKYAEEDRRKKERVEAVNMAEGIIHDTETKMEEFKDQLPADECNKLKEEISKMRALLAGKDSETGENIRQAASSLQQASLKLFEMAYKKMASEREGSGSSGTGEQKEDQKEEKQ

Molecular target: T1, His tagged murine GCN5L1 (mouse) (UniProt O55102)
T1 sequence: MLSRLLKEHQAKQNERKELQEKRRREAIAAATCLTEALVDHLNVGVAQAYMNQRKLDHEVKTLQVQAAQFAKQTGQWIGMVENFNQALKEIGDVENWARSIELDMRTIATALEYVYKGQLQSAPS
Experiment: affinity purification with mass spectrometry; His tagged murine GCN5L1 purified from E. coli incubated with liver mitochondrial extract, analysis with MS; only the target purified

binding: binds
Substance: GRP75, endogenous in mouse liver (from UniProt P38647 47-679)
